For series [1] the following is noted: for water content retained at moderate humidity: 10%-80% RH, 4-scan DMSG; for water content of the material: DMSG, at the start of the run, sample as received; for moisture sorbed at 80% RH: material made amorphous by drying to 0% RH. The protocol: Approximately 10 mg samples were used in the balance, samples were run as received. The humidity was set at ambient conditions on the day analysis began. […] The scan rate was 3% RH/step. The mass was measured every two minutes and an equilibrium window of 5 points within 0.001 mg. […] The Visual Basic program dmsgscn2.exe was used to control the data collection and export the information to an Excel spreadsheet.
(§1) The humidity was set at ambient conditions on the day analysis began. […] The mass was measured every two minutes and an equilibrium window of 5 points within 0.001 mg.
as §1

For series [2] the following is noted: trituration in aqueous media, or stressed humidity conditions.

Where two headings read alike, the source gives them in different places.

`CCC[C@@H]1C[C@@H](C(=O)NC(C(C)Cl)C2OC(SC)C(O)C(O)C2O)N(C)C1` (stereo partly shown) [Form I, clindamycin free base]: the moisture sorbed entry in series [1] (first scan, from 70% RH to 90% RH, 25° C.) is “about 2%”.
In the case of `CCC[C@@H]1C[C@@H](C(=O)NC(C(C)Cl)C2OC(SC)C(O)C(O)C2O)N(C)C1` (stereo partly shown) [Form II, clindamycin free base], the solid form conversion entry in series [2] is “convert to Form I”. In series [1], the “water content retained at moderate humidity” value is “about 2%” and the “water content of the material” value is recorded as “approximately 2%”. The “moisture sorbed at 80% RH” value in series [1] (second scan) was “approximately 2%”.
With `CCC[C@@H]1C[C@@H](C(=O)NC(C(C)Cl)C2OC(SC)C(O)C(O)C2O)N(C)C1` (stereo partly shown) [Form III, clindamycin free base], in series [1] (listed as Form m), the “water content retained at moderate humidity” value is listed as “about 4.5%” and the “water content of the material” value is reported as “approximately 4.5%”. In addition, in series [1] (first scan, from ambient down to about 6% RH), the moisture content lost result is recorded as “about 1.5%”. For the same compound, the “moisture sorbed at 90% RH” value in series [1] (second scan, crystals at 90% RH) is reported as “about 6%”. In addition, the “moisture sorbed at 80% RH” value in series [1] (second scan) is “about 6%”.

These data come from patent US20030073647A1 (priority 2001, published 2003).
